{"source": "patent US7863274B2", "about": "“Deuterium enriched analogues of tadalafil as PDE5 inhibitors” (Concert Pharmaceuticals Inc., priority 2005, dated 2011)", "origin": "cited, not measured here", "key": {"[1]": {"test_system": "males with mild to severe erectile dysfunction", "details": "versus placebo; cited from earlier work"}, "[2]": {"test_system": "spontaneous rat hypertension model", "details": "oral dosing; cited from earlier work"}, "[3]": {"test_system": "rat aortic smooth muscle cells", "details": "cultured rat aortic smooth muscle cells; cited from earlier work"}}, "note": "For at least one compound, name, drawing or mass did not settle the structure."}
{"molecule": "CN1CC(=O)N2[C@H](c3ccc4c(c3)OCO4)c3[nH]c4ccccc4c3C[C@@H]2C1=O", "note": "[Compound 1, (6R,12aR)-6-(1,3-benzodioxol-5-yl)-2-methyl-1,2,3,4,6,7,12,12a-octahydropyrazino[1′,2′:1,6]pyrido[3,4-b]indole-1,4-dione]", "values": [{"measurement": "patient-reported penetration ability and ability to maintain erection during intercourse", "setting": "[1]", "value": "highly significant patient-reported increases"}, {"measurement": "blood pressure reduction", "setting": "[2]", "value": "significant and long-lived blood pressure reduction"}, {"measurement": "intracellular concentrations of cGMP", "setting": "[3]", "value": "dose-dependently increases intracellular concentrations of cGMP"}]}
